{"sequences": {"note": "Protein sequences, listed by entry. Tags and fused reporters are not part of them.", "UniProt P35462, whole entry, looked up": "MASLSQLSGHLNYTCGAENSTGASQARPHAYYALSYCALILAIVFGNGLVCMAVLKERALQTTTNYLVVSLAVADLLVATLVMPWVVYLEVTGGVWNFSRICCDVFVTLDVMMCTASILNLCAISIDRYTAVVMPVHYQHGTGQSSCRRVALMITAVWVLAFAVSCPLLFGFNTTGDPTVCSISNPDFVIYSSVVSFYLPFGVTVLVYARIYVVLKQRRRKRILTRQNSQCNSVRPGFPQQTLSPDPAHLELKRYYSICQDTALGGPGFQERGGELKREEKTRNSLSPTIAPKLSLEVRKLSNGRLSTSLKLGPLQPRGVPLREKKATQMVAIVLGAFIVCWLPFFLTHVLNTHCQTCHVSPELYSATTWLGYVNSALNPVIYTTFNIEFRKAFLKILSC"}, "source": "PubChem BioAssay AID652054", "about": "(National Center for Advancing Translational Sciences (NCATS), 2013)", "note": "“And” between values parts separate entries of the source, which are not always exact repeats. Equal values may be shown once. About 9,100 (2.5%) of roughly 360,000 compounds were called active. Inconclusive means that the source gave no clear call. Such entries were picked first, then a sample of the others. Cut-off read from the data, not from the text of the source: active = max response below about -50%; inconclusive = no clear call, values can overlap the other calls; inactive = above that. % is set by controls: 0 for no effect and ±100 for the full control effect.", "data": [{"target": "D(3) dopamine receptor (Homo sapiens) (UniProt P35462)", "experiment": "qHTS of D3 Dopamine Receptor Antagonist: qHTS", "details": "D3R cells, DiscoveRx beta-arrestin luminescence, antagonist mode; hits give low values", "how_it_was_run": "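Cells plated overnight at 1500 cells/well, then exposed to library compounds with dopamine controls for 90 minutes at 37 degrees C. DiscoveRx reagent added for 30–60 minutes at room temperature; luminescence read, quantitative HTS format.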", "values": [{"smiles": "COC(=O)C1=C(c2ccccc2)C[C@@H]2CC[C@H]1N2C(=O)NCc1ccc(C(F)(F)F)cc1", "max response, negative = inhibition": "inconclusive: -30.1%"}, {"smiles": "O=C(c1cc(F)ccc1F)C1CCCN(Cc2cccc(Cl)c2)C1", "note": "(configuration not stated)", "max response, negative = inhibition": "active: -79.3%"}, {"smiles": "Cc1ccc2c(c1)CC1(CN2C)C(=O)NC(=O)N(c2cccc(C)c2C)C1=O", "note": "(configuration not stated)", "max response, negative = inhibition": "inconclusive: -32.9%"}, {"smiles": "CCCCCn1c(=O)c(C(=O)NCCc2ccccc2)c(O)c2ccccc21", "max response, negative = inhibition": "inactive: 4.04%"}, {"smiles": "c1ccc2c(c1)OCC(C1=NCCN1)O2", "note": "(configuration not stated)", "max response, negative = inhibition": "inconclusive: -32.8%"}, {"smiles": "COC(=O)C1=C(c2cccc(OCc3ccccc3)c2)C[C@@H]2CC[C@H]1N2C(=O)NCc1ccc(C(C)(C)C)cc1", "max response, negative = inhibition": "inconclusive: -45%"}, {"smiles": "c1ccc(Nc2ccc(Nc3ccccc3)cc2)cc1", "max response, negative = inhibition": "inconclusive: -39.3%"}, {"smiles": "CN1c2ccc([N+](=O)[O-])cc2CC2(C(=O)NC(=O)NC2=O)C1c1ccccc1", "note": "(configuration not stated)", "max response, negative = inhibition": "inconclusive: -48.2%"}, {"smiles": "CN1CCC2(CC1)C(C#N)=C(N)NC(S)=C2C#N", "max response, negative = inhibition": "inactive: -12% and inactive: 6.3%"}, {"smiles": "COC(=O)C1=C(c2ccc(Cl)c(C(F)(F)F)c2)C[C@@H]2CC[C@H]1N2C(=O)N1CCC(C)CC1", "max response, negative = inhibition": "active: -50.5%"}, {"smiles": "Oc1c(Br)cc(Br)cc1CN1CCN(Cc2ccccc2)CC1", "max response, negative = inhibition": "inconclusive: -33.2%"}, {"smiles": "Cc1ccc(C(C)C)c(OCC#CCN2CCCC2)c1", "max response, negative = inhibition": "inconclusive: -33.2%"}, {"smiles": "COc1cc2nc(CN3CC=C(c4ccccc4)CC3)[nH]c(=O)c2cc1OC", "max response, negative = inhibition": "inactive: 22.3%"}, {"smiles": "O=C1NC(=O)C2(CCCc3ccc(N(CCCl)CCCl)cc32)N1", "note": "(configuration not stated)", "max response, negative = inhibition": "inactive: 4.47%"}, {"smiles": "COc1ccc(CC2(CCc3ccncc3)C(=O)NC(=O)NC2=O)c(OC)c1", "max response, negative = inhibition": "inconclusive: -32.1%"}, {"smiles": "C=CCCC[C@@H]1OC(=O)CNC(=O)C([C@@H](C)CC)NC(=O)[C@@H]2CCCN2C(=O)C([C@@H](C)CC)OC(=O)[C@H](Cc2ccccc2)N(C)C(=O)[C@H](C(C)C)NC(=O)C1(C)C", "note": "(some centres not stated)", "max response, negative = inhibition": "inconclusive: -32.7%"}, {"smiles": "COc1ccccc1C(=O)C1CCCN(Cc2cnc(C)s2)C1", "note": "(configuration not stated)", "max response, negative = inhibition": "inactive: 2.79%"}, {"smiles": "COc1ccccc1N1CCN(Cc2ccc3c(c2)OCO3)CC1", "max response, negative = inhibition": "active: -86.8%"}, {"smiles": "O=C(c1ccc(C(F)(F)F)cc1)C1CCCN(Cc2ccc(CO)o2)C1", "note": "(configuration not stated)", "max response, negative = inhibition": "inconclusive: -36.6%"}, {"smiles": "NC(N)=Nc1ccc2[nH]c3c(c2c1)C[C@@]1(O)[C@H]2Cc4ccc(O)c5c4[C@@]1(CCN2CC1CC1)[C@H]3O5", "max response, negative = inhibition": "active: -60.8%"}, {"smiles": "CN1C(=O)c2ccccc2Sc2ccc(C(=O)N3CCC4(CC3)OCCO4)cc21", "max response, negative = inhibition": "inconclusive: -32.1%"}, {"smiles": "CCC1(C2=NCCN2)Cc2ccccc2O1", "note": "(configuration not stated)", "max response, negative = inhibition": "inactive: 12.5%"}, {"smiles": "COC(=O)C1=C(c2ccc(Cl)c(C(F)(F)F)c2)C[C@@H]2CC[C@H]1N2C(=O)NCCOc1ccccc1Cl", "max response, negative = inhibition": "inconclusive: -49.5%"}, {"smiles": "COc1cccc(CN2CC=C(c3ccc(F)cc3)CC2)c1", "max response, negative = inhibition": "active: -77.5%"}, {"smiles": "Cc1nonc1-c1nc(-c2nonc2N)n[nH]1", "max response, negative = inhibition": "inactive: -13.4%"}, {"smiles": "CCn1nc(-c2ccccc2)nc2c(=O)n(C)c(=O)nc1-2", "max response, negative = inhibition": "inconclusive: -30.7%"}, {"smiles": "CC(C)(C)c1cc(C=C(C#N)C#N)cc(C(C)(C)C)c1O", "max response, negative = inhibition": "inactive: 49.7%"}, {"smiles": "Cc1sc2ncnc(N3CCC(C(=O)Nc4ccc(C#N)c(Cl)c4)CC3)c2c1C", "max response, negative = inhibition": "inactive: 115%"}, {"smiles": "CC[C@H]1CN(C)CCc2c([nH]c3ccccc23)C(=O)C[C@@H]1/C(=C\\OC)C(=O)OC", "max response, negative = inhibition": "active: -50.8%"}, {"smiles": "CN1C(=O)C(C2c3ccccc3C(=O)N2Cc2ccc([N+](=O)[O-])cc2)C(=O)N(C)C1=O", "note": "(configuration not stated)", "max response, negative = inhibition": "inconclusive: -35.3%"}, {"smiles": "COc1cccc(CN2CCN(c3ccc(F)cc3)CC2)c1OC", "max response, negative = inhibition": "inconclusive: -31%"}, {"smiles": "O=[N+]([O-])c1ccc(NC2CCN(Cc3ccccc3)CC2)c2ccncc12", "max response, negative = inhibition": "active: -73.7%"}, {"smiles": "COc1cc(C)cc(CN2CC=C(c3ccccc3)CC2)c1O", "max response, negative = inhibition": "inconclusive: -32.7%"}, {"smiles": "CN1C[C@H](CO)C[C@@H]2c3cccc4[nH]cc(c34)C[C@H]21", "max response, negative = inhibition": "active: -56.2%"}, {"smiles": "O=c1[nH]c(=O)n(Cc2ccco2)c(O)c1C=NC1CCN(Cc2ccccc2)CC1", "max response, negative = inhibition": "inconclusive: -36.2%"}, {"smiles": "COCCNC(=O)c1c(N)n(CCC(C)C)c2nc3ccccc3nc12", "max response, negative = inhibition": "inconclusive: -33.6%"}, {"smiles": "CC(NCc1ccc(Cl)cc1)C(O)c1ccccc1", "note": "(configuration not stated)", "max response, negative = inhibition": "active: -105%"}, {"smiles": "O=c1c2ccccc2nc(N2CCCC2)n1-c1ccccc1", "max response, negative = inhibition": "inconclusive: -35.3%"}, {"smiles": "COc1ccc(OC)c(CN2CCCC(C(=O)c3sccc3C)C2)c1", "note": "(configuration not stated)", "max response, negative = inhibition": "active: -82.2%"}, {"smiles": "COc1cc2c(c(OC)c1OC)-c1ccc(O)c(=O)cc1C(NC(C)=O)CC2", "note": "(configuration not stated)", "max response, negative = inhibition": "inactive: -11.5%"}, {"smiles": "CCn1c(O)c(C(=O)CC2NCCc3ccccc32)c(=O)n(CC)c1=S", "note": "(configuration not stated)", "max response, negative = inhibition": "inconclusive: -32.9%"}, {"smiles": "O=Cc1c(C(=O)O)n(Cc2ccc(Cl)cc2)c2ccccc12", "max response, negative = inhibition": "inactive: 0.263%"}]}]}
